The source of these data is the supplement of paper PMC10849652.

Protein sequences, listed by entry. Tags and fused reporters are not part of them. Lines headed by an entry give the natural chain unless they say otherwise; changes in a name come on top.
UniProt Q13885, whole entry, looked up: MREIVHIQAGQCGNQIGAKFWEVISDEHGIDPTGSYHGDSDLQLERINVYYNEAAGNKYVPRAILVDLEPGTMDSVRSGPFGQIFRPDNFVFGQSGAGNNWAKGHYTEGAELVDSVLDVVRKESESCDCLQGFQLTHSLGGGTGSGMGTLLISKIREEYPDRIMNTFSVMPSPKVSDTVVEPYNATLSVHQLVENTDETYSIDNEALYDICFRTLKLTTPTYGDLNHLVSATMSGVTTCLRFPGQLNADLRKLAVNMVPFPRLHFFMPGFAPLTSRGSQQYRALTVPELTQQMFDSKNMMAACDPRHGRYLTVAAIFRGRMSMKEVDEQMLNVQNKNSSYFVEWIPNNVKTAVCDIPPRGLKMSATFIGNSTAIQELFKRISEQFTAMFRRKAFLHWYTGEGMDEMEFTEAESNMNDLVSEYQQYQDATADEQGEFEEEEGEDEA
UniProt P51668: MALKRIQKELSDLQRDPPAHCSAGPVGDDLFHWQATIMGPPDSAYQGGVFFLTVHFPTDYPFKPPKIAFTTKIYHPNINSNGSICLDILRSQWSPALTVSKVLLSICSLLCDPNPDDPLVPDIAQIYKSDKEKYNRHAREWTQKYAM
UniProt P0DPH7, whole entry, looked up: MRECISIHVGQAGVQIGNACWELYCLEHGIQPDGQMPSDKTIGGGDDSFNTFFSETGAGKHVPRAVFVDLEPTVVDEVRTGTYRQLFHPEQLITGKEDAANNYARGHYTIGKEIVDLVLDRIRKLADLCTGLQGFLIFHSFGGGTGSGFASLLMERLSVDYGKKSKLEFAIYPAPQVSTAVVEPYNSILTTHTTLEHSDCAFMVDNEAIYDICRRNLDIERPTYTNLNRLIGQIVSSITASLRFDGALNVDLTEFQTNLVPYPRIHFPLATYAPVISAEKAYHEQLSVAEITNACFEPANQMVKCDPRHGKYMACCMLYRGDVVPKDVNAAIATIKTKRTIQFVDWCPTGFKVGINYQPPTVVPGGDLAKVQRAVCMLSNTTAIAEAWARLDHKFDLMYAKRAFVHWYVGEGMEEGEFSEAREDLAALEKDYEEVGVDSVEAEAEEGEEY
UniProt Q96B02: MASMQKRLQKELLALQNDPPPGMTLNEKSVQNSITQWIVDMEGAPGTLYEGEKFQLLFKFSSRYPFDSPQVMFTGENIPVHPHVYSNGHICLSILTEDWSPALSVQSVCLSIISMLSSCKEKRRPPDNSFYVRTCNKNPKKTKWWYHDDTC
UniProt Q9BRA2: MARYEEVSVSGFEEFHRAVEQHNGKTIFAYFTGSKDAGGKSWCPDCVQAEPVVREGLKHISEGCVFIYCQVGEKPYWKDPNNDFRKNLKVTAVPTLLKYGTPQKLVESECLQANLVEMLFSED
UniProt O94888: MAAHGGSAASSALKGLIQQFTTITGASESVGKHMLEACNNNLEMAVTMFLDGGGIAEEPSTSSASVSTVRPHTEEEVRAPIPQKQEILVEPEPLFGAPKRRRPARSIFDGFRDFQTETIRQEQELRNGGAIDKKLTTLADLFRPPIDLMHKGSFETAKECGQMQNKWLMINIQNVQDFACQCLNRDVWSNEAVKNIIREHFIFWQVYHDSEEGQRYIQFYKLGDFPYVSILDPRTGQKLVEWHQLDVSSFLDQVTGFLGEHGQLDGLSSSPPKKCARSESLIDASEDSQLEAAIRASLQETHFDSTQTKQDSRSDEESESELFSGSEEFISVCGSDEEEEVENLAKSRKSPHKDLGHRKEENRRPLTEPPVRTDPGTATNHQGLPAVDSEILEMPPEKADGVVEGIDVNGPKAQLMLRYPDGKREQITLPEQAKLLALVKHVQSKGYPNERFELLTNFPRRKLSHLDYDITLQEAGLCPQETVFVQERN
UniProt Q9GZZ9, whole entry, looked up: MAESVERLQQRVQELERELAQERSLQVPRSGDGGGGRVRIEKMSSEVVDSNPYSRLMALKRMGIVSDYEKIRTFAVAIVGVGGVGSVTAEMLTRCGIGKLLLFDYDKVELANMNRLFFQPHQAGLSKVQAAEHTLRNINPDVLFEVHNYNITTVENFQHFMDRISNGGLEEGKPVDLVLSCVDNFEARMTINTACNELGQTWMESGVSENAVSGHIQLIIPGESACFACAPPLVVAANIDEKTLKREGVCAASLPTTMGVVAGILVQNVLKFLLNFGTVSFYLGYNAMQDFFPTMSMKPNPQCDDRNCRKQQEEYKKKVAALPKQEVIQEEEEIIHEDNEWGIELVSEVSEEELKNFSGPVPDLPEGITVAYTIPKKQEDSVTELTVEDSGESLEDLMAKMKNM
UniProt Q969M7: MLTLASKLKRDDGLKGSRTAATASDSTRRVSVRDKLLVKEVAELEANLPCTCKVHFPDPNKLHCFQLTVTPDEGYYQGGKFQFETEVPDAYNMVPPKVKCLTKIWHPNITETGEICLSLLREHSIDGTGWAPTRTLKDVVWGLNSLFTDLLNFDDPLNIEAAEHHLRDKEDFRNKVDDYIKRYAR
UniProt Q9BZX2: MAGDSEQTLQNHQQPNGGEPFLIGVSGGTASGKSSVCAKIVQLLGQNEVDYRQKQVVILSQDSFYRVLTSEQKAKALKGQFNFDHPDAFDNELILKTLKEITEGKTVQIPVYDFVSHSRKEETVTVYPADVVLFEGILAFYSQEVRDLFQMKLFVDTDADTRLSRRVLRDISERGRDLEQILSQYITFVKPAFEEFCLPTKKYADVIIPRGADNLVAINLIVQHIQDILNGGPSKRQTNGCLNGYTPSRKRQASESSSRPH
UniProt Q05086: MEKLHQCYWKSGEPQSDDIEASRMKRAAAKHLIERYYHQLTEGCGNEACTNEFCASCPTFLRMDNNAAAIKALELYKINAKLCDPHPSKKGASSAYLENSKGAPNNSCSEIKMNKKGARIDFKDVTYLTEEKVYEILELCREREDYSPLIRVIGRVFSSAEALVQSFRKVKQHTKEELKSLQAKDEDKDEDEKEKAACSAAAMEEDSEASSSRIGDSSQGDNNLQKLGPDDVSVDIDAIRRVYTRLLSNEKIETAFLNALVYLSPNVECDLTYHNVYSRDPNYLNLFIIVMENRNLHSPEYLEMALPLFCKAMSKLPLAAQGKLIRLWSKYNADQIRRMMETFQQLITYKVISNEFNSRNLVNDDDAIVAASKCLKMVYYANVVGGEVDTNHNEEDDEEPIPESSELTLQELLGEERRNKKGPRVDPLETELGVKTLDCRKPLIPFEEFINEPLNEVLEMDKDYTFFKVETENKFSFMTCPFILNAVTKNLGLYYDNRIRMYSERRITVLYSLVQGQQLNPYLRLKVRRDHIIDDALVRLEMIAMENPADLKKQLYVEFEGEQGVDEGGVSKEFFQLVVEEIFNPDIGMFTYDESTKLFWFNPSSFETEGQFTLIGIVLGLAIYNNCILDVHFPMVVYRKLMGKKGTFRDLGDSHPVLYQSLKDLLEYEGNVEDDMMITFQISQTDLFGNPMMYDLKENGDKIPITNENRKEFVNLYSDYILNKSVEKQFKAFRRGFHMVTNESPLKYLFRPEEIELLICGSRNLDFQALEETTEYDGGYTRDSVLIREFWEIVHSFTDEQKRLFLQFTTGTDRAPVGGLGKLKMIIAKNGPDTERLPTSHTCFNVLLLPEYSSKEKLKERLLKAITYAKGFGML
UniProt Q969T4: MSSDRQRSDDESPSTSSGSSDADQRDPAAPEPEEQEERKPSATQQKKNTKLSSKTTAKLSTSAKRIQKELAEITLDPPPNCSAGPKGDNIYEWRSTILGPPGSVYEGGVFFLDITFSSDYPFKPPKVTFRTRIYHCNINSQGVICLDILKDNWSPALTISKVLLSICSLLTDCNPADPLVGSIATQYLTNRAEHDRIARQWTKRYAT
UniProt P61088: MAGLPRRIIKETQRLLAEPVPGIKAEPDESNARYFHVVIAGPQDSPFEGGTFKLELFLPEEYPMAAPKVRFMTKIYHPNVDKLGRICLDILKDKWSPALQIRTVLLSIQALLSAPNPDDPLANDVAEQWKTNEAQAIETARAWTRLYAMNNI
UniProt P68543: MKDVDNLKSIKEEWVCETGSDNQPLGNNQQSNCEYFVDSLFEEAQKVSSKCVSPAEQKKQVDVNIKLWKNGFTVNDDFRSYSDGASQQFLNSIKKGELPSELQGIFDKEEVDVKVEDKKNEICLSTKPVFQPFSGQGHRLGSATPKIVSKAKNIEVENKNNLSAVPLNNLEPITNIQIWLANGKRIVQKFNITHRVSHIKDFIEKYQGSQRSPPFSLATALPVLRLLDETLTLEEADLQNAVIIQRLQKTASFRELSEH
UniProt Q8N2K1: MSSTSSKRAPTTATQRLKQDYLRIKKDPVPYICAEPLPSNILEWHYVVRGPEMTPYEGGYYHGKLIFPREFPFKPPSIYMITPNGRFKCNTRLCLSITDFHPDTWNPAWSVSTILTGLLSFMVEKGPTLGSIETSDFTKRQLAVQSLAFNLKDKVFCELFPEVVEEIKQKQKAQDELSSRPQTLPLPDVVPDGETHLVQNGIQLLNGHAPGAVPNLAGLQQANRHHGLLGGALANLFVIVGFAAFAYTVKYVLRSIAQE
UniProt Q9H6E5: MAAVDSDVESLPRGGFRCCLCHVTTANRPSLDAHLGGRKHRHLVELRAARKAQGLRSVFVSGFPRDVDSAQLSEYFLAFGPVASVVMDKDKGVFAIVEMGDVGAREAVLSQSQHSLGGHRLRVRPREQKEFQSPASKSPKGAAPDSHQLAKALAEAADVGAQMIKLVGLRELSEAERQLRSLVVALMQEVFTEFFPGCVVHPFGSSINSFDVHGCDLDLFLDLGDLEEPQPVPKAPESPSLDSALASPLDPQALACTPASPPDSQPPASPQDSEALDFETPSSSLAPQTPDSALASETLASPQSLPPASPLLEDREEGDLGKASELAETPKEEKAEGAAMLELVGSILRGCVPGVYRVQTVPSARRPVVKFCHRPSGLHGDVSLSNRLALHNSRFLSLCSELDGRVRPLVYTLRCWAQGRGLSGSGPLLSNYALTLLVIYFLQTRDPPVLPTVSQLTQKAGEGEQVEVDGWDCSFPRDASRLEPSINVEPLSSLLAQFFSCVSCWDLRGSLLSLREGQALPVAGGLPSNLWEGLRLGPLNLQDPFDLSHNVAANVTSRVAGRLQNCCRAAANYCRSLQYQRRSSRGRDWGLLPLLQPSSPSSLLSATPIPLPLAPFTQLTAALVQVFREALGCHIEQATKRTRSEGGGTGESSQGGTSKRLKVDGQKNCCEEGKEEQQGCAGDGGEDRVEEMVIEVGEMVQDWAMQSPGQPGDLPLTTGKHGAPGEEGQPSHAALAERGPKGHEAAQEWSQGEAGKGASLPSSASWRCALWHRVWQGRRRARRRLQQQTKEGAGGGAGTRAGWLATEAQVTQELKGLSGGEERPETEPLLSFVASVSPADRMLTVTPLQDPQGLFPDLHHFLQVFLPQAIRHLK
UniProt P61086: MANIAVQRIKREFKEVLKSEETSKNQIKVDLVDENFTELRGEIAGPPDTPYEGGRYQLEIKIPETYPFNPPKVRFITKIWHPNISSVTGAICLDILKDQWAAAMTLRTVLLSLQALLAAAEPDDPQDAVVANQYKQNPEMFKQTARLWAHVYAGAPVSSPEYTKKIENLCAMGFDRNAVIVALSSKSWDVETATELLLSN
UniProt Q9NNW7, whole entry, looked up: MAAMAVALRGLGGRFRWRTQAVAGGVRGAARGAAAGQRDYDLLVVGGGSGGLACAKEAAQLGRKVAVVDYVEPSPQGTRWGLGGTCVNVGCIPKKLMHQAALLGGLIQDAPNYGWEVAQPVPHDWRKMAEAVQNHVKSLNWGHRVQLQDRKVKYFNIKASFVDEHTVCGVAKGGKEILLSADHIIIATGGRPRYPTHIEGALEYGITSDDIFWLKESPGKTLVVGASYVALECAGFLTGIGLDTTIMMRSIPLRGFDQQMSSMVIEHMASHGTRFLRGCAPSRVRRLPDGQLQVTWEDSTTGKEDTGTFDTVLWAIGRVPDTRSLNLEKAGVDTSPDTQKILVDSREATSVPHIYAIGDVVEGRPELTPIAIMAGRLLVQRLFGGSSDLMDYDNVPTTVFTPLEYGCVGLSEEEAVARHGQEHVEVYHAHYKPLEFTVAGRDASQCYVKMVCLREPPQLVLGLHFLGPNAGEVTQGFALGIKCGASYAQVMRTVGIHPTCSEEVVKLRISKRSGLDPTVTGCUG
UniProt P11441: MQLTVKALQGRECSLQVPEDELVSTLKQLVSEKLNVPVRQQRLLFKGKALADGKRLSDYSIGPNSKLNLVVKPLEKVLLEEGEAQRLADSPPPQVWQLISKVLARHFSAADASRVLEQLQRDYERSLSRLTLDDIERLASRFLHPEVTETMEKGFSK
UniProt Q01081: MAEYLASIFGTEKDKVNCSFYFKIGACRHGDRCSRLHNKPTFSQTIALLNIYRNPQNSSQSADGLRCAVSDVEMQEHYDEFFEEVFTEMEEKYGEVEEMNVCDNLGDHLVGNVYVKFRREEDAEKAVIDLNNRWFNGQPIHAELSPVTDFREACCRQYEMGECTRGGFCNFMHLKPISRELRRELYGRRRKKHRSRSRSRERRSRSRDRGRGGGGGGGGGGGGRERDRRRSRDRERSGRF

This is one part of the list.

Compound in this experiment: CCN(CCCOc1ccc2c(Nc3cc(CC(=O)Nc4cccc(F)c4)[nH]n3)ncnc2c1)CCOP(=O)(O)O [barasertib]
Kind of experiment: log2 fold change, soluble protein after heating vs DMSO (PISA); higher = thermal stabilisation; K562 lysate, 10 uM; active = over 0.2 and 3.5 SD of the protein, either way, in both replicates (recomputed). The method, boiled down:
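K562 pellets were dounce-homogenised in PBS pH 7.4 with 1 mM MgCl2, and the crude extract at 1 mg/mL protein was treated with 10 μM compound for 30 min. Aliquots were heated for 3 min across 48°C-58°C, pooled, and brought to 0.5% NP-40 at 4°C; soluble protein was the supernatant after 21,000xg for 90 min. Soluble protein was quantified by TMTpro 16plex LC-MS/MS with channel sums equalised, and reported as log2 fold change in thermal stability against DMSO controls, with values from duplicates.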
As for TUBB2A (UniProt Q13885), the log2 fold change is inactive: -0.013.

As for UBE2D1 (UniProt P51668), the log2 fold change is inactive: 0.014.

For the target TUBB4A (UniProt M0QYM7), the log2 fold change is inactive: 0.315.

On to TUBA3C (UniProt P0DPH7), for which the log2 fold change was inactive: -0.011.

As for UBE2W isoform 3 (UniProt Q96B02), the log2 fold change is inactive: 0.065.

Consider UBE2I (UniProt H3BQQ9), for which the log2 fold change is inactive: 0.145.

On to TXNDC17 (UniProt Q9BRA2), for which the log2 fold change is inactive: 0.023.

Consider UBE3B (UniProt Q7Z3V4), for which the log2 fold change was inactive: 0.175.

As for UBXN7 (UniProt O94888), the log2 fold change was inactive: -0.01.

Turning to UBA5 (UniProt Q9GZZ9), the log2 fold change is inactive: 0.006.

Turning to UBE2F isoform 2 (UniProt Q969M7), the log2 fold change is inactive: -0.084.

Regarding UCK2 (UniProt Q9BZX2), the log2 fold change was inactive: 0.012.

As for UBE3A (UniProt Q05086), the log2 fold change was inactive: 0.02.

As to UBE2E3 (UniProt Q969T4), the log2 fold change was inactive: 0.019.

With UBE2N (UniProt P61088), the log2 fold change was inactive: 0.102.

Turning to UBR4 (UniProt Q5T4S7), the log2 fold change is inactive: 0.02.

On to UBXN2A (UniProt P68543), for which the log2 fold change is inactive: -0.106.

Take UBE2J2 (UniProt Q8N2K1): the log2 fold change is inactive: 0.027.

TUFM (UniProt P49411): the log2 fold change was inactive: 0.044.

As to TUT1 (UniProt Q9H6E5), the log2 fold change was inactive: 0.06.

In the case of TUBB6 (UniProt K7ES63), the log2 fold change was inactive: -0.012.

As to UBE2K (UniProt P61086), the log2 fold change was inactive: -0.031.

Regarding TXNRD2 (UniProt Q9NNW7), the log2 fold change is inactive: -0.047.

With UBL4A (UniProt P11441), the log2 fold change was inactive: 0.089.

Take U2AF1 isoform 2 (UniProt Q01081): the log2 fold change was inactive: -0.085.
